{
  "source": "the supplement of paper PMC3334620",
  "note": "Over roughly 33,000 sequences, “E-score (-0.5 to 0.5)” has its median near -0.0014; the highest 2% begin near 0.25. This is one part of the list.",
  "data": [
    {"biological_target": "T1, Cad1 (UniProt P24813)", "T1 sequence": "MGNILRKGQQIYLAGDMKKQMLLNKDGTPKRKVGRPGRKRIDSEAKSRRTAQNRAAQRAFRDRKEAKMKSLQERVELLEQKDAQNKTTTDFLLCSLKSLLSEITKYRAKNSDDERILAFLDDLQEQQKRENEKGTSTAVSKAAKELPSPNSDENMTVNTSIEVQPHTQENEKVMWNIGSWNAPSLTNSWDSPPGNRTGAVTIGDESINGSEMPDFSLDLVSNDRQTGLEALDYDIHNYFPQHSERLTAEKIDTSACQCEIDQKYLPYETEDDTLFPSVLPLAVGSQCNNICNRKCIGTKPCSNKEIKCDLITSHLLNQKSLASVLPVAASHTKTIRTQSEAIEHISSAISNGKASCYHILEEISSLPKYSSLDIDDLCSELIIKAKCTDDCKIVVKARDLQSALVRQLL", "assay": "PBM E-score (8-mer binding enrichment) (E-score (-0.5 to 0.5)); higher = stronger / more preferred TF binding", "details": "protein concentration: 100 nM; construct: GST-full length", "how_it_was_run": "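Bound GST-tagged yeast transcription factors, applied at about 100-200 nM to double-stranded universal all-10-mer Agilent arrays, were detected with fluorescent anti-GST. Scans were normalised with masliner. A modified Wilcoxon-Mann-Whitney statistic, the E-score, was assigned to each ungapped eight-base word pooled with its reverse complement by the Universal PBM Analysis Suite.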", "values": [
      {"sequence": "CGCAGGGC", "PBM E-score": -0.00694},
      {"sequence": "GAGAGAAC", "PBM E-score": -0.064},
      {"sequence": "CGGTTGCC", "PBM E-score": 0.222},
      {"sequence": "CGGAATAG", "PBM E-score": 0.0775},
      {"sequence": "TATCTTCA", "PBM E-score": -0.0564},
      {"sequence": "TAACAATA", "PBM E-score": 0.165},
      {"sequence": "CAGTGTAC", "PBM E-score": 0.0128},
      {"sequence": "CGCGTGGC", "PBM E-score": -0.0806},
      {"sequence": "AATTCAGG", "PBM E-score": 0.176},
      {"sequence": "CTCACAAA", "PBM E-score": 0.0843},
      {"sequence": "CACAACTA", "PBM E-score": 0.213},
      {"sequence": "ATGGTTGA", "PBM E-score": -0.0849},
      {"sequence": "ACGGCCAC", "PBM E-score": 0.0951},
      {"sequence": "GTGTGAGA", "PBM E-score": 0.0149},
      {"sequence": "AATCTACG", "PBM E-score": -0.186},
      {"sequence": "AATCAATG", "PBM E-score": 0.217},
      {"sequence": "GGTGCTAA", "PBM E-score": 0.00614},
      {"sequence": "CCTTTATC", "PBM E-score": -0.0775},
      {"sequence": "CTCCCAGC", "PBM E-score": -0.124},
      {"sequence": "ATTATTCA", "PBM E-score": 0.26},
      {"sequence": "TAAGGATA", "PBM E-score": 0.0582},
      {"sequence": "CGACCCCG", "PBM E-score": -0.191},
      {"sequence": "CGCTTAAA", "PBM E-score": 0.139},
      {"sequence": "CATTTTGA", "PBM E-score": -0.12},
      {"sequence": "GAGGCTCA", "PBM E-score": -0.174},
      {"sequence": "GCATACAC", "PBM E-score": -0.0314},
      {"sequence": "AAATATAG", "PBM E-score": 0.209},
      {"sequence": "AGACTACG", "PBM E-score": -0.0981},
      {"sequence": "CGCACCCC", "PBM E-score": -0.247},
      {"sequence": "TAACAGAA", "PBM E-score": 0.177},
      {"sequence": "TTAGCCAA", "PBM E-score": -0.0111},
      {"sequence": "ACTGCGGC", "PBM E-score": 0.0901},
      {"sequence": "CGTAACGA", "PBM E-score": -0.077},
      {"sequence": "CCGGGTAG", "PBM E-score": 0.00529},
      {"sequence": "CGTTCGCA", "PBM E-score": -0.116},
      {"sequence": "ATCTCTCA", "PBM E-score": 0.188},
      {"sequence": "GCTGGGAA", "PBM E-score": -0.0764},
      {"sequence": "TAAGTGTA", "PBM E-score": 0.0637},
      {"sequence": "AGATCGCC", "PBM E-score": -0.0366},
      {"sequence": "CAGAACGA", "PBM E-score": 0.00871},
      {"sequence": "CATAGGAC", "PBM E-score": -0.122},
      {"sequence": "GTTCTACA", "PBM E-score": -0.128},
      {"sequence": "CGGCTGCA", "PBM E-score": -0.0112},
      {"sequence": "GGGGAAAA", "PBM E-score": -0.0376},
      {"sequence": "AGAAACCA", "PBM E-score": 0.0247},
      {"sequence": "ATCCTAGC", "PBM E-score": -0.0714},
      {"sequence": "ATGCCTGG", "PBM E-score": -0.104},
      {"sequence": "CCCATACA", "PBM E-score": 0.0294},
      {"sequence": "ACCTAAAC", "PBM E-score": 0.00775},
      {"sequence": "ATTGCAGC", "PBM E-score": 0.049},
      {"sequence": "ACAGCGGG", "PBM E-score": -0.0666},
      {"sequence": "GCTACGTA", "PBM E-score": 0.104},
      {"sequence": "ACTTGCAT", "PBM E-score": 0.0331},
      {"sequence": "GTTTATAA", "PBM E-score": 0.264},
      {"sequence": "CGAGTCTC", "PBM E-score": -0.153},
      {"sequence": "CGACCTAA", "PBM E-score": 0.0725},
      {"sequence": "AGAAGAGG", "PBM E-score": -0.345},
      {"sequence": "ATAACTAC", "PBM E-score": 0.0339},
      {"sequence": "CACCCCTC", "PBM E-score": -0.0707},
      {"sequence": "ACCCGTGC", "PBM E-score": -0.181},
      {"sequence": "CCTGCAGG", "PBM E-score": -0.0462},
      {"sequence": "CAAGATTG", "PBM E-score": -0.0156},
      {"sequence": "CATAGTCA", "PBM E-score": 0.143},
      {"sequence": "GAAGAAAA", "PBM E-score": 0.11},
      {"sequence": "GCCACCGC", "PBM E-score": -0.0545},
      {"sequence": "ATCGGTTA", "PBM E-score": 0.0856},
      {"sequence": "CCCTGGCC", "PBM E-score": -0.299},
      {"sequence": "CTTTATTC", "PBM E-score": 0.0294},
      {"sequence": "GAAACTGA", "PBM E-score": -0.183},
      {"sequence": "CCGACCTA", "PBM E-score": -0.0547},
      {"sequence": "AAAGACCG", "PBM E-score": -0.19},
      {"sequence": "CGCCTTGA", "PBM E-score": -0.153},
      {"sequence": "CGTCGCTA", "PBM E-score": 0.16},
      {"sequence": "TCGGTCAA", "PBM E-score": 0.165},
      {"sequence": "ATCGAGAT", "PBM E-score": -0.0305},
      {"sequence": "GCACTCCC", "PBM E-score": -0.204},
      {"sequence": "CAAATCTG", "PBM E-score": -0.0187},
      {"sequence": "GATTAAGC", "PBM E-score": 0.15},
      {"sequence": "ACATAAGT", "PBM E-score": 0.0802},
      {"sequence": "AAACTTCA", "PBM E-score": 0.141},
      {"sequence": "CTCCCCGA", "PBM E-score": -0.192},
      {"sequence": "CACTACAA", "PBM E-score": 0.0859},
      {"sequence": "ACGCGACG", "PBM E-score": 0.00196},
      {"sequence": "AAAGTTCT", "PBM E-score": 0.0926},
      {"sequence": "ACGGCGAT", "PBM E-score": -0.0308},
      {"sequence": "AATTTAGC", "PBM E-score": 0.0508}
    ]}
  ]
}
